Source: paper doi:10.1101/2020.01.13.905521
Results are given in words; binding and its absence hold for the method and conditions named. In cells and extracts the contact can be indirect. Some binding calls cover weakened binding; strength is not graded here.

Chains of the proteins cited; added tags and fusions are not shown.
UniProt Q99814: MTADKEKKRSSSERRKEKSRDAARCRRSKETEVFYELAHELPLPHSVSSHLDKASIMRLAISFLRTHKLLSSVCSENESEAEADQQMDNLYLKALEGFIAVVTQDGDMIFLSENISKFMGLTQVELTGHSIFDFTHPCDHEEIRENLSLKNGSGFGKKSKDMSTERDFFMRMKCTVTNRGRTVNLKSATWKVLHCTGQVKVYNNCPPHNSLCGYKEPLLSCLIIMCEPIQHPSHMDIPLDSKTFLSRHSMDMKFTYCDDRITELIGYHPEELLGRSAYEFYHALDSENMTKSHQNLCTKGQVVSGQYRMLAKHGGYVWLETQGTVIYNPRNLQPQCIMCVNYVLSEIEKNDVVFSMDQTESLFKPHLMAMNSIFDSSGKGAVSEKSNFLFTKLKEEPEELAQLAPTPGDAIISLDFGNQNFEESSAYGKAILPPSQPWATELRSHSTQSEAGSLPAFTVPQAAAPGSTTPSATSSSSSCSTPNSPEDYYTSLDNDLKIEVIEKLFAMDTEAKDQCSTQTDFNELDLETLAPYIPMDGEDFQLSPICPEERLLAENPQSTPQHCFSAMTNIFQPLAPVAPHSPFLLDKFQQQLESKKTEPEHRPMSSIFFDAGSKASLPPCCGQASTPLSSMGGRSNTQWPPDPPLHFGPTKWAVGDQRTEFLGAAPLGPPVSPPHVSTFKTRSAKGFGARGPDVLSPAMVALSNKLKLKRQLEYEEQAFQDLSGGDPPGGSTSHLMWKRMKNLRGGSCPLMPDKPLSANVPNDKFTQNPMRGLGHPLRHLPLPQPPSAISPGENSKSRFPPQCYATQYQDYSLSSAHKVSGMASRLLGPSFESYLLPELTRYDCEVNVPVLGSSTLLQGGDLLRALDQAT

Molecular target: T1, folliculin (FLCN) (human (endogenous in 786-O, ACHN and HK-2)) (UniProt Q8NFG4)
T1 sequence: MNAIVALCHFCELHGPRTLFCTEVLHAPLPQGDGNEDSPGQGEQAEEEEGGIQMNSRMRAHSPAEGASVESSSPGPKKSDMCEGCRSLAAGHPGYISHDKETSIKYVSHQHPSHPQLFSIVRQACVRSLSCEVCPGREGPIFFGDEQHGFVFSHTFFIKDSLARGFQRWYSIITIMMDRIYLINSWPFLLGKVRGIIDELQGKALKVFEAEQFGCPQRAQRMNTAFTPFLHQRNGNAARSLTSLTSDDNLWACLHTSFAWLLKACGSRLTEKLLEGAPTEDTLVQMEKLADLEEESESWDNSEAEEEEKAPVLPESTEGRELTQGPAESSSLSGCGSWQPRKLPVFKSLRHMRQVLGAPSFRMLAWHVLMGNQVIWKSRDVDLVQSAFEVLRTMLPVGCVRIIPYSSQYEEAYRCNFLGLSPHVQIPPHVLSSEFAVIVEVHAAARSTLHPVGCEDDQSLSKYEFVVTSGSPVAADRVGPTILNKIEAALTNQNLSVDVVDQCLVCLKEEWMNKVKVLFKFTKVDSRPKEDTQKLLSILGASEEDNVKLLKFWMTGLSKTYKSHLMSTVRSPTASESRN
Experiment: co-IP

binding: binds
Substance: HIF2α (from UniProt Q99814 1-870)
